Data set [1] is described as follows: Surfactant switchability by pH variation: emulsion phase volume (Example 16). It is filed as physicochemical.
The nature of data set [2]: Surfactant stability: emulsion phase volume over time (Example 15). It is filed as physicochemical. The following applies: 2 mL heavy oil + 2 mL 1% surfactant solution.
Setting [3] is: no acid (pH 9 test surfactant, pH 6 Tergitol).

As to “2-(nonen-1-yl)succinic acid mono (2-cyclohexylethyl) ester [Example 3]”, the “% mixture volume occupied by emulsion, 5 min” value in data set [1] (acid added (HCl 10M), pH 1) was found to be 0%; in data set [1] (setting [3]) it was 100%; in data set [2] (5 min after mixing), 93%. In addition, the “% mixture volume occupied by emulsion, 30 min” value in data set [1] (acid added (HCl 10M), pH 1) amounted to 0%; in data set [1] (setting [3]) it was 99%; in data set [2] (30 min after mixing) it was 79%. Besides, the “% mixture volume occupied by emulsion, 60 min” value turned out to be 0% in data set [1] (acid added (HCl 10M), pH 1); 93% in data set [1] (setting [3]); 64% in data set [2] (60 min after mixing). Moreover, the “% mixture volume occupied by emulsion, 1 day” value in data set [1] (acid added (HCl 10M), pH 1) is recorded as 0%; in data set [1] (setting [3]), 43%; in data set [2] (1 day after mixing), 36%.
